In the M2OR odorant receptor database:
The entries are a selection whose mix differs from that of the whole data set. Calls are pooled over several reports, among them a noisy single-well screen. The list shows a part of the results.

Assays:
Settings in all cases: stereoisomer not certain
[1] = system: T1, O5AU1
T1 sequence (whole entry): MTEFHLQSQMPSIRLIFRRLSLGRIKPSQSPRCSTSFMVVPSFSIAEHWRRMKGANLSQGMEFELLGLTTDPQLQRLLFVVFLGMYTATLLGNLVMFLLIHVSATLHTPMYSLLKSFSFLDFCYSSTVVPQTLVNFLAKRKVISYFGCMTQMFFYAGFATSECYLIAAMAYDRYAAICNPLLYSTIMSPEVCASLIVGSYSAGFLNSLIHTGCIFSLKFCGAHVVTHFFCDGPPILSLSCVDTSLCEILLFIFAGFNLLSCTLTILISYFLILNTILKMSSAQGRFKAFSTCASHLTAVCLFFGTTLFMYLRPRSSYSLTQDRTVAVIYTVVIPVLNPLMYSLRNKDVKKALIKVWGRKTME
Method in brief: (§1)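 Transient luciferase assays in mammalian cell lines were common, though methods varied by source. The values come from published papers and their supplementary material, with extra details from the original authors when needed. Responsive refers to a measured signal the original authors judged statistically different from baseline, and non-responsive (inactive) to the remainder.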

[2] = system: T2, O5H14
T2 sequence (whole entry): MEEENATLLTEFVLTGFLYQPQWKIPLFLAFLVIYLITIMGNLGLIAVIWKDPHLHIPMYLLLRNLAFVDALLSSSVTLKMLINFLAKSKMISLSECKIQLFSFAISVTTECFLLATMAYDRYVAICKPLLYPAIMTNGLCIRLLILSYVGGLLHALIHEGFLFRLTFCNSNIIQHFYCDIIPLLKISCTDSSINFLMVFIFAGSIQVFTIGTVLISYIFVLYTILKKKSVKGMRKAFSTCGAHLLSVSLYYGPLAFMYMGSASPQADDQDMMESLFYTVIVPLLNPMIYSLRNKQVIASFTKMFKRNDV
Method in brief: as §1

[3] = system: T3, O6C68
T3 sequence (whole entry): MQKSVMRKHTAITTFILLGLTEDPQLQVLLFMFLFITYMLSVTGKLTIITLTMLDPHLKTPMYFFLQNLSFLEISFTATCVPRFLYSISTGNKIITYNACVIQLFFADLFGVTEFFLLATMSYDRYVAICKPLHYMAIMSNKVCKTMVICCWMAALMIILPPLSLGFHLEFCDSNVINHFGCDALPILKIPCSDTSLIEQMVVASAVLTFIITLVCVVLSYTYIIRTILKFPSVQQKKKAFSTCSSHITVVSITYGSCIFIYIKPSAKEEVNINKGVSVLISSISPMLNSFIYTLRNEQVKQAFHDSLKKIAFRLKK
Method in brief: as §1

[4] = system: T4, O6C70
T4 sequence (whole entry): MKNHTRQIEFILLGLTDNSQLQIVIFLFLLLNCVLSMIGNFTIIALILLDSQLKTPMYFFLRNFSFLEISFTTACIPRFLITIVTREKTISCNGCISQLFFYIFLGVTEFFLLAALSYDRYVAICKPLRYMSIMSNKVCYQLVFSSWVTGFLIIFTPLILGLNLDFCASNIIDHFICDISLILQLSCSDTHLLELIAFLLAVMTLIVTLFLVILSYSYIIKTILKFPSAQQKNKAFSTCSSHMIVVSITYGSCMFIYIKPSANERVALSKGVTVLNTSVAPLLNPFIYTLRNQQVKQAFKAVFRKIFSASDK
Method in brief: as §1

[5] = system: T5, O7E24
T5 sequence (whole entry): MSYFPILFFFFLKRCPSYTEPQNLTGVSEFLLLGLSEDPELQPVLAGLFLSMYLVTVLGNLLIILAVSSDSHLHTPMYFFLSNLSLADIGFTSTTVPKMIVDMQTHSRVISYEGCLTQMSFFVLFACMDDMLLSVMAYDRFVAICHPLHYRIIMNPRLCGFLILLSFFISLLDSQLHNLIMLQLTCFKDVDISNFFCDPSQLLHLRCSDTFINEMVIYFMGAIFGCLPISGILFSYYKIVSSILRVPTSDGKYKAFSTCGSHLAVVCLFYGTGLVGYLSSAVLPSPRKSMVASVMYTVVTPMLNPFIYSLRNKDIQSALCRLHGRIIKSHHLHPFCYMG
Method in brief: as §1

[6] = molecular target: T6, OR10A3 (Homo sapiens) (UniProt P58181)
T6 sequence (whole entry): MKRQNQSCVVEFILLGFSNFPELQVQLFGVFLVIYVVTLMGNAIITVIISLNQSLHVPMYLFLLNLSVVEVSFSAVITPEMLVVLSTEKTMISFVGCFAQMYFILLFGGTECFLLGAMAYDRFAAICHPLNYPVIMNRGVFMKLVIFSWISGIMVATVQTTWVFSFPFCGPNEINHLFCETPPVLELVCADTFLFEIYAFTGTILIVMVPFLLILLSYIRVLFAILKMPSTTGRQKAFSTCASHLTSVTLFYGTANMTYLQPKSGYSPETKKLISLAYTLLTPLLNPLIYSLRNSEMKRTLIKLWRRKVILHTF
Method in brief: as §1

[7] = molecular target: T7, OR10A5 (Homo sapiens) (UniProt Q9H207)
T7 sequence (whole entry): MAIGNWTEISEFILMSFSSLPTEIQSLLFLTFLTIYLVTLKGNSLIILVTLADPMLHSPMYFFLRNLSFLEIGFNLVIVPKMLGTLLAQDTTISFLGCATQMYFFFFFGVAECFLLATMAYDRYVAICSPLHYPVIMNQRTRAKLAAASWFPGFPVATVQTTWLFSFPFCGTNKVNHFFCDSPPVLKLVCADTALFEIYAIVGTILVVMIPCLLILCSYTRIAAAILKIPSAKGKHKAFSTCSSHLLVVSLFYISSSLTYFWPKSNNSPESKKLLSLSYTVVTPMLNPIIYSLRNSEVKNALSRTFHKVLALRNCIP
Method in brief: as §1

[8] = molecular target: T8, OR10A6 (Homo sapiens) (UniProt Q8NH74)
T8 sequence (whole entry): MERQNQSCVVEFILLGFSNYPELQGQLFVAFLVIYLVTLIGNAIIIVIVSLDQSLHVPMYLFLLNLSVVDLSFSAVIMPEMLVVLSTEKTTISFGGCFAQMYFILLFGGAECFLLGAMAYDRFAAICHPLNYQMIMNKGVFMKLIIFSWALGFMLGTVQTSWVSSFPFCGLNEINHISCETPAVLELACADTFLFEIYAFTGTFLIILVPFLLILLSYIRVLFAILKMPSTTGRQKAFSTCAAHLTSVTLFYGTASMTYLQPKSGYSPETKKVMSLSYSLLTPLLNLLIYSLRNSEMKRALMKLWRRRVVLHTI
Method in brief: as §1

[9] = molecular target: T9, OR10A7 (Homo sapiens) (UniProt Q8NGE5)
T9 sequence (whole entry): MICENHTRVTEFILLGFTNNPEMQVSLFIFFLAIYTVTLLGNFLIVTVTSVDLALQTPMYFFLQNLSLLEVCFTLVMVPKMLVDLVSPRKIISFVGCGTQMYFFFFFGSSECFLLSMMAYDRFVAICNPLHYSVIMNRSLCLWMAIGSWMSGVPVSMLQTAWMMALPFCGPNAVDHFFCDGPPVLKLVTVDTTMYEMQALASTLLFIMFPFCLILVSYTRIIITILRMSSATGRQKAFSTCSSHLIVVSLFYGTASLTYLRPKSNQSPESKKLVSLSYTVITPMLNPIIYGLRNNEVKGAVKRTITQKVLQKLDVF
Method in brief: as §1

[10] = molecular target: T10, OR10AG1 (Homo sapiens) (UniProt Q8NH19)
T10 sequence (whole entry): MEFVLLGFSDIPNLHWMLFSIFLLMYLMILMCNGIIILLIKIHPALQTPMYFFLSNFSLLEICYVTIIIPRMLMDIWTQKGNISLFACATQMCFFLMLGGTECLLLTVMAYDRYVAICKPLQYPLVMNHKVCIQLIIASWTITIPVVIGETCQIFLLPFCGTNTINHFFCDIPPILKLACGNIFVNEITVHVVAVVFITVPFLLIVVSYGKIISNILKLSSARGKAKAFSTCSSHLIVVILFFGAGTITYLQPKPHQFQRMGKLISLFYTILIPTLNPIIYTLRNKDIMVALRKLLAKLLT
Method in brief: as §1

Measured: odorant receptor agonist call;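 note: active if original authors judged signal statistically different from baseline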

CCCCOC(C)=O
inactive: all assays above
